Test results reported in PubChem BioAssay AID328 (DTP/NCI, 2004).
The list is a part of this screen's results and no random one: it covers a few groups of compounds. Other doses and runs of a compound may be missing. T/C gives the treated animals as a percentage of the vehicle group. For survival time, the PubChem record calls one and a half times the control and up active, and a quarter to a half above the control has no call in these data; cut-offs in other NCI protocols can differ. Some T/C values are marked as having no survivor count here; that says nothing about deaths at the dose. Schedules are NCI's codes, read here as Q, the interval in days (D) or hours (H), X, the number of doses. Some entries were tested several times; their values stand side by side, smallest first.

Test system: BDF1 mice, P388 leukemia ip, median survival T/C
Experiment: NCI In Vivo Anticancer Drug Screen. Data for tumor model P388 Leukemia (intraperitoneal) in B6D2F1 (BDF1) mice
Conditions: T/C endpoint: median survival time, higher T/C = longer survival
In short: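 T/C = treated-group survival ÷ vehicle-control survival; tumour transplanted into mice before dosing.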

[1] = dose: 1.0 mg/kg/injection, schedule: Q01DX009 (ip), vehicle: saline
[2] = dose: 1.0 mg/kg/injection, schedule: Q04DX003 (ip), vehicle: saline
[3] = dose: 5.0 mg/kg/injection, schedule: Q04DX003 (ip), vehicle: saline
[4] = dose: 12.5 mg/kg/injection, schedule: Q04DX003 (ip), vehicle: saline with Tween-80

For COC(=O)CCc1ccc(CN(CCCl)CCCl)cc1, the T/C (dose: 0.44 mg/kg/injection, schedule: Q01DX009 (ip), vehicle: saline) was 108 % of control [survivor count not shown], the T/C (dose: 0.44 mg/kg/injection, schedule: Q04DX003 (ip), vehicle: saline) was 109 % of control [survivor count not shown] and the T/C (dose: 0.66 mg/kg/injection, schedule: Q01DX009 (ip), vehicle: saline) was 141 % of control [survivor count not shown]. For the same compound, the T/C (dose: 0.66 mg/kg/injection, schedule: Q04DX003 (ip), vehicle: saline) was 118 % of control [survivor count not shown], the T/C (dose: 0.75 mg/kg/injection, schedule: Q01DX009 (ip), vehicle: saline) was 95 [survivor count not shown] and 104 % of control [survivor count not shown] and the T/C [1] was 158 % of control [survivor count not shown]. For the same compound, the T/C [2] was 122 % of control [survivor count not shown], the T/C (dose: 1.46 mg/kg/injection, schedule: Q04DX003 (ip), vehicle: saline) was 140 % of control [survivor count not shown] and the T/C (dose: 1.5 mg/kg/injection, schedule: Q01DX009 (ip), vehicle: saline) was 131 [survivor count not shown], 139 [survivor count not shown], 181 % of control [survivor count not shown]. The T/C (dose: 1.5 mg/kg/injection, schedule: Q04DX003 (ip), vehicle: saline) was 150 % of control [survivor count not shown], the T/C (dose: 2.2 mg/kg/injection, schedule: Q04DX003 (ip), vehicle: saline) was 154 % of control [survivor count not shown] and the T/C (dose: 3.0 mg/kg/injection, schedule: Q01DX009 (ip), vehicle: saline) was 150 [survivor count not shown] and 200 % of control [survivor count not shown]. The T/C (dose: 3.3 mg/kg/injection, schedule: Q04DX003 (ip), vehicle: saline) was 163 % of control [survivor count not shown] and the T/C [3] was 200 % of control [survivor count not shown].

In the case of ClCCN(CCCl)CCc1ccccc1, the T/C (dose: 2.0 mg/kg/injection, schedule: Q01DX009 (ip), vehicle: saline) is reported as 180 % of control [survivor count not shown], the T/C (dose: 3.13 mg/kg/injection, schedule: Q01DX009 (ip), vehicle: saline) is reported as 230 % of control [survivor count not shown] and the T/C (dose: 4.6 mg/kg/injection, schedule: Q01DX009 (ip), vehicle: saline) is reported as 215 % of control [survivor count not shown].

Oc1ccc(Cl)cc1CN(CCCl)CCCl was tested, and the T/C [4] was 153 % of control [survivor count not shown], the T/C (dose: 16.5 mg/kg/injection, schedule: Q04DX003 (ip), vehicle: saline with Tween-80) was 150 % of control [survivor count not shown] and the T/C (dose: 25.0 mg/kg/injection, schedule: Q04DX003 (ip), vehicle: saline with Tween-80) was 153 [survivor count not shown] and 183 % of control [survivor count not shown]. The T/C (dose: 37.5 mg/kg/injection, schedule: Q04DX003 (ip), vehicle: saline with Tween-80) was 191 % of control [survivor count not shown] and the T/C (dose: 50.0 mg/kg/injection, schedule: Q04DX003 (ip), vehicle: saline with Tween-80) was 107 % of control [survivor count not shown].

With NN(CCCl)CCCl the T/C (dose: 8.0 mg/kg/injection, schedule: Q04DX003 (ip), vehicle: saline with Tween-80) was 145 % of control [survivor count not shown], the T/C (dose: 8.25 mg/kg/injection, schedule: Q04DX003 (ip), vehicle: saline with Tween-80) was 154 % of control [survivor count not shown] and the T/C (dose: 12.0 mg/kg/injection, schedule: Q04DX003 (ip), vehicle: saline with Tween-80) was 240 % of control [survivor count not shown]. For the same compound, the T/C [4] was 236 % of control [survivor count not shown], the T/C (dose: 18.0 mg/kg/injection, schedule: Q04DX003 (ip), vehicle: saline with Tween-80) was 272 % of control [survivor count not shown] and the T/C (dose: 18.75 mg/kg/injection, schedule: Q04DX003 (ip), vehicle: saline with Tween-80) was 272 % of control [survivor count not shown].

In the case of ClCCN(CCCl)c1ccc(C=C2C=CC=C2)cc1, the T/C (dose: 100.0 mg/kg/injection, schedule: Q01DX008 (ip), vehicle: saline with Tween-80) is reported as 122 % of control [survivor count not shown], the T/C (dose: 100.0 mg/kg/injection, schedule: Q04DX003 (ip), vehicle: saline with Tween-80) is reported as 100 % of control [survivor count not shown] and the T/C (dose: 200.0 mg/kg/injection, schedule: Q01DX008 (ip), vehicle: saline with Tween-80) is reported as 145 % of control [survivor count not shown]. The T/C (dose: 200.0 mg/kg/injection, schedule: Q04DX003 (ip), vehicle: saline with Tween-80) was 94 % of control [survivor count not shown], the T/C (dose: 400.0 mg/kg/injection, schedule: Q01DX008 (ip), vehicle: saline with Tween-80) was 227 % of control [survivor count not shown] and the T/C (dose: 400.0 mg/kg/injection, schedule: Q04DX003 (ip), vehicle: saline with Tween-80) was 94 % of control [survivor count not shown].

For Cn1c(=O)[nH]cc(N(CCCl)CCCl)c1=O, the T/C (dose: 0.15 mg/kg/injection, schedule: Q01DX009 (ip), vehicle: saline) was 87 % of control [survivor count not shown], the T/C (dose: 0.31 mg/kg/injection, schedule: Q01DX009 (ip), vehicle: saline) was 112 [survivor count not shown] and 145 % of control [survivor count not shown] and the T/C (dose: 0.4 mg/kg/injection, schedule: Q01DX009 (ip), vehicle: saline) was 131 % of control [survivor count not shown]. The T/C (dose: 0.62 mg/kg/injection, schedule: Q01DX009 (ip), vehicle: saline) was 100 [survivor count not shown], 129 [survivor count not shown], 154 % of control [survivor count not shown], the T/C (dose: 0.93 mg/kg/injection, schedule: Q01DX009 (ip), vehicle: saline) was 177 % of control [survivor count not shown] and the T/C [3] was 86 % of control [survivor count not shown].

ClCCN1CCN(CCCl)CC1 was tested, and the T/C (dose: 0.25 mg/kg/injection, schedule: Q01DX009 (ip), vehicle: saline) was 131 % of control [survivor count not shown], the T/C (dose: 0.5 mg/kg/injection, schedule: Q01DX009 (ip), vehicle: saline) was 109 [survivor count not shown] and 200 % of control [survivor count not shown] and the T/C (dose: 0.5 mg/kg/injection, schedule: Q04DX003 (ip), vehicle: saline) was 116 [survivor count not shown] and 209 % of control [survivor count not shown]. For the same compound, the T/C [1] was 104 [survivor count not shown] and 240 % of control [survivor count not shown], the T/C [2] was 170 [survivor count not shown] and 231 % of control [survivor count not shown] and the T/C (dose: 2.0 mg/kg/injection, schedule: Q04DX003 (ip), vehicle: saline) was 200 % of control [survivor count not shown].

For COc1cccc(N(CCCl)CCCl)c1OC, the T/C (dose: 33.0 mg/kg/injection, schedule: Q04DX002 (ip), vehicle: saline with Tween-80) was 129 % of control [survivor count not shown], the T/C (dose: 50.0 mg/kg/injection, schedule: Q04DX002 (ip), vehicle: saline with Tween-80) was 162 % of control [survivor count not shown] and the T/C (dose: 75.0 mg/kg/injection, schedule: Q04DX002 (ip), vehicle: saline with Tween-80) was 175 % of control [survivor count not shown].
